We go through seven molecules from US7252957B2, “Identification of etiology of autism” (Immunosciences Lab., Inc., priority 2004, dated 2007).

The data set is described as follows: ELISA for serum IgG antibodies against antigens, peptides, enzymes, receptors in patients with autism and controls. On the set-up: species or system human. Conditions: cut-off of 2 standard deviations above the mean of controls; for Percent Elevation of IgG Antibody Levels, Patients / Percent Elevation of IgG Antibody Levels, Controls: Table 5; for Percent Elevation of IgG Antibody Levels, Patients / Approximate Percent Elevation of IgG Antibody Levels, Patients: children with autism; for Approximate Percent Elevation of IgG Antibody Levels, Patients / Approximate Percent Elevation of IgG Antibody Levels, Controls: Table 6, neural antigens. On the technique in general: ELISA stands for enzyme-linked immunosorbent assay.

B1: Fibrillarin (protein, UniProt P22087 1-321, looked up)
rRNA 2'-O-methyltransferase …: MKPGFSPRGGGFGGRGGFGDRGGRGGRGGFGGGRGRGGGFRGRGRGGGGGGGGGGGGGRGGGGFHSGGNRGRGRGGKRGNQSGKNVMVEPHRHEGVFICRGKEDALVTKNLVPGESVYGEKRVSISEGDDKIEYRAWNPFRSKLAAAILGGVDQIHIKPGAKVLYLGAASGTTVSHVSDIVGPDGLVYAVEFSHRSGRDLINLAKKRTNIIPVIEDARHPHKYRMLIAMVDVIFADVAQPDQTRIVALNAHTFLRNGGHFVISIKANCIDSTASAEAVFASEVKKMQQENMKPQEQLTLEPYERDHAVVVGVYRPPPKVKN
On to B1, for which the “Percent Elevation of IgG Antibody Levels, Patients” value amounted to 44% and the “Percent Elevation of IgG Antibody Levels, Controls” value is given as 2%.

B2: MBP (protein, UniProt P02686 1-304, looked up)
Myelin basic protein: MGNHAGKRELNAEKASTNSETNRGESEKKRNLGELSRTTSEDNEVFGEADANQNNGTSSQDTAVTDSKRTADPKNAWQDAHPADPGSRPHLIRLFSRDAPGREDNTFKDRPSESDELQTIQEDSAATSESLDVMASQKRPSQRHGSKYLATASTMDHARHGFLPRHRDTGILDSIGRFFGGDRGAPKRGSGKDSHHPARTAHYGSLPQKSHGRTQDENPVVHFFKNIVTPRTPPPSQGKGRGLSLSRFSWGAEGQRPGFGYGGRASDYKSAHKGFKGVDAQGTLSKIFKLGGRDSRSGSPMARR
For the molecule B2, the “Percent Elevation of IgG Antibody Levels, Patients” value was found to be 58%; the “Percent Elevation of IgG Antibody Levels, Controls” value came out at 15%; the “Approximate Percent Elevation of IgG Antibody Levels, Patients” value (from here on “Approximate Percent Elevation … Patients”) came out at 57%; the “Approximate Percent Elevation of IgG Antibody Levels, Controls” value (from here on “Approximate Percent Elevation … Controls”) is given as 14%.

B3: PLP (protein, UniProt P60201 2-277, looked up)
Myelin proteolipid protein: GLLECCARCLVGAPFASLVATGLCFFGVALFCGCGHEALTGTEKLIETYFSKNYQDYEYLINVIHAFQYVIYGTASFFFLYGALLLAEGFYTTGAVRQIFGDYKTTICGKGLSATVTGGQKGRGSRGQHQAHSLERVCHCLGKWLGHPDKFVGITYALTVVWLLVFACSAVPVYIYFNTWTTCQSIAFPSKTSASIGSLCADARMYGVLPWNAFPGKVCGSNLLSICKTAEFQMTFHLFIAAFVGAAATLVSLLTFMIAATYNFAVLKLMGRGTKF
As for B3, the “Percent Elevation of IgG Antibody Levels, Patients” value worked out at 46% and the “Percent Elevation of IgG Antibody Levels, Controls” value is recorded as 7%.

B4: MAG (protein, UniProt P20916 20-626, looked up)
Myelin-associated glycoprotein: GHWGAWMPSSISAFEGTCVSIPCRFDFPDELRPAVVHGVWYFNSPYPKNYPPVVFKSRTQVVHESFQGRSRLLGDLGLRNCTLLLSNVSPELGGKYYFRGDLGGYNQYTFSEHSVLDIVNTPNIVVPPEVVAGTEVEVSCMVPDNCPELRPELSWLGHEGLGEPAVLGRLREDEGTWVQVSLLHFVPTREANGHRLGCQASFPNTTLQFEGYASMDVKYPPVIVEMNSSVEAIEGSHVSLLCGADSNPPPLLTWMRDGTVLREAVAESLLLELEEVTPAEDGVYACLAENAYGQDNRTVGLSVMYAPWKPTVNGTMVAVEGETVSILCSTQSNPDPILTIFKEKQILSTVIYESELQLELPAVSPEDDGEYWCVAENQYGQRATAFNLSVEFAPVLLLESHCAAARDTVQCLCVVKSNPEPSVAFELPSRNVTVNESEREFVYSERSGLVLTSILTLRGQAQAPPRVICTARNLYGAKSLELPFQGAHRLMWAKIGPVGAVVAFAILIAIVCYITQTRRKKNVTESPSFSAGDNPPVLFSSDFRISGAPEKYESERRLGSERRLLGLRGEPPELDLSYSHSDLGKRPTKDSYTLTEELAEYAEIRVK
For B4, the “Percent Elevation of IgG Antibody Levels, Patients” value stood at 49%; the “Percent Elevation of IgG Antibody Levels, Controls” value worked out at 8%; the “Approximate Percent Elevation … Patients” value was 49%; the “Approximate Percent Elevation … Controls” value is reported as 9%.

B5: Transaldolase (protein, UniProt P37837 1-337, looked up)
Transaldolase: MSSSPVKRQRMESALDQLKQFTTVVADTGDFHAIDEYKPQDATTNPSLILAAAQMPAYQELVEEAIAYGRKLGGSQEDQIKNAIDKLFVLFGAEILKKIPGRVSTEVDARLSFDKDAMVARARRLIELYKEAGISKDRILIKLSSTWEGIQAGKELEEQHGIHCNMTLLFSFAQAVACAEAGVTLISPFVGRILDWHVANTDKKSYEPLEDPGVKSVTKIYNYYKKFSYKTIVMGASFRNTGEIKALAGCDFLTISPKLLGELLQDNAKLVPVLSAKAAQASDLEKIHLDEKSFRWLHNEDQMAVEKLSDGIRKFAADAVKLERMLTERMFNAENGK
Take B5: the “Percent Elevation of IgG Antibody Levels, Patients” value is 29%; the “Percent Elevation of IgG Antibody Levels, Controls” value is recorded as 4%; the “Approximate Percent Elevation … Patients” value is 33%; the “Approximate Percent Elevation … Controls” value was 4%.

B6: MOG (protein, UniProt Q16653 30-247, looked up)
Myelin-oligodendrocyte …: GQFRVIGPRHPIRALVGDEVELPCRISPGKNATGMEVGWYRPPFSRVVHLYRNGKDQDGDQAPEYRGRTELLKDAIGEGKVTLRIRNVRFSDEGGFTCFFRDHSYQEEAAMELKVEDPFYWVSPGVLVLLAVLPVLLLQITVGLIFLCLQYRLRGKLRAEIENLHRTFDPHFLRVPCWKITLFVIVPVLGPLVALIICYNWLHRRLAGQFLEELRNPF
On to B6, for which the “Percent Elevation of IgG Antibody Levels, Patients” value turned out to be 48%; the “Percent Elevation of IgG Antibody Levels, Controls” value turned out to be 11%; the “Approximate Percent Elevation … Patients” value stood at 43%; the “Approximate Percent Elevation … Controls” value was 11%.

B7: CD13 (protein, UniProt P15144 2-967, looked up)
Aminopeptidase N: AKGFYISKSLGILGILLGVAAVCTIIALSVVYSQEKNKNANSSPVASTTPSASATTNPASATTLDQSKAWNRYRLPNTLKPDSYRVTLRPYLTPNDRGLYVFKGSSTVRFTCKEATDVIIIHSKKLNYTLSQGHRVVLRGVGGSQPPDIDKTELVEPTEYLVVHLKGSLVKDSQYEMDSEFEGELADDLAGFYRSEYMEGNVRKVVATTQMQAADARKSFPCFDEPAMKAEFNITLIHPKDLTALSNMLPKGPSTPLPEDPNWNVTEFHTTPKMSTYLLAFIVSEFDYVEKQASNGVLIRIWARPSAIAAGHGDYALNVTGPILNFFAGHYDTPYPLPKSDQIGLPDFNAGAMENWGLVTYRENSLLFDPLSSSSSNKERVVTVIAHELAHQWFGNLVTIEWWNDLWLNEGFASYVEYLGADYAEPTWNLKDLMVLNDVYRVMAVDALASSHPLSTPASEINTPAQISELFDAISYSKGASVLRMLSSFLSEDVFKQGLASYLHTFAYQNTIYLNLWDHLQEAVNNRSIQLPTTVRDIMNRWTLQMGFPVITVDTSTGTLSQEHFLLDPDSNVTRPSEFNYVWIVPITSIRDGRQQQDYWLIDVRAQNDLFSTSGNEWVLLNLNVTGYYRVNYDEENWRKIQTQLQRDHSAIPVINRAQIINDAFNLASAHKVPVTLALNNTLFLIEERQYMPWEAALSSLSYFKLMFDRSEVYGPMKNYLKKQVTPLFIHFRNNTNNWREIPENLMDQYSEVNAISTACSNGVPECEEMVSGLFKQWMENPNNNPIHPNLRSTVYCNAIAQGGEEEWDFAWEQFRNATLVNEADKLRAALACSKELWILNRYLSYTLNPDLIRKQDATSTIISITNNVIGQGLVWDFVQSNWKKLFNDYGGGSFSFSNLIQAVTRRFSTEYELQQLEQFKKDNEETGFGSGTRALEQALEKTKANIKWVKENKEVVLQWFTENSK
In the case of B7, the “Percent Elevation of IgG Antibody Levels, Patients” value is listed as 40% and the “Percent Elevation of IgG Antibody Levels, Controls” value stood at 8%.
